To fix the notation:
B1: il10ra_site1_sap_19_mot_HHH_b1_04514_000000156_0001_1_18_H_._HHH_b1_01679_0001_0000100001_0000001_0_0001_af2pred_0001 (protein)
chain: SSSSSSEAEKEVAKILIEVLRLNDEEAAERISHLLIRLIVEGDERLIEEIRELFEEVEENSSSSS
B2: il10ra_site1_sap_27_mot_b26a303360aa2756ef5b79665ce52f45_0001_000000179_0001_1_11_H_._HHH_b1_07223_af2_0001_0000200010_0000001_0_0001 (protein)
chain: SSSSDVEEEVERLIEEAKELLEEGDPREAARVLAKALELAYRSGDEELLRRIWELVQEIAKSSSS
B3: il10ra_site1_normal_mot_HHH_b2_07784_af2_000000103_0001_19_36_H_._HHH_b1_03293_0001_0000300017_0000001_1 (protein)
chain: SSSSEEAEELVKEVEEELRRLLEEGNFEEAYRALKEAIEQLVELGNPEAARRLSELFLRLASSSS
B4: il10ra_site1_sap_18_mot_HHH_b1_05357_000000034_0001_23_39_H_._HHH_b2_06286_0001_0000500033_0000001_0_0001 (protein)
chain: SDVVEFIARVAEKFVEELIKEAQTEEVRELLEEVKETIEEAVEKNDLEKVWEALKKAAELRKLIS
B5: il10ra_site1_sap_30_mot_HHH_b2_03425_000000200_0001_22_39_H_._HHH_b2_07962_0001_0000100002_0000001_0_0001_af2pred_0001 (protein)
chain: SSSSDLEELLELSLRFAERLLELGDPRAARRIVRAALQLARRLNDEEFLERVEELEERVNSSSSS
B6: il10ra_site1_sap_23_mot_HHH_b2_02757_000000230_0001_1_19_H_._HHH_b2_05650_0001_0000100006_0000002_0_0001_af2pred_0001 (protein)
chain: SSSSDSLEYLIRVAIKAARIALERGDPEKAQEALEIAEKSARELNDPELEREVEELLEELNSSSS
B7: il10ra_site1_normal_mot_HHH_b1_00999_000000080_0001_41_55_H_._HHH_b1_02815_0001_0000300012_0000001_0 (protein)
chain: SSSSDEEEERSEELLEELEKLLKEGDEHRFLRLVAEIARFAYRVSDEELLQAVWELAKKFGSSSS
B8: il10ra_site1_sap_16_mot_HHH_b2_00943_af2_000000149_0001_1_17_H_._HHH_b1_05691_0001_0000300036_0000001_0_0001 (protein)
chain: SSSSDLEELVRAALRLAEQAYENGDPRAARLLLRALEELLEREGNEELLEEVRRLLEELENSSSS
B9: il10ra_site1_sap_21_mot_HHH_b2_00479_000000091_0001_1_12_H_._HHH_b1_04780_af2_0001_0000100007_0000001_0_0001 (protein)
chain: SSSSSDLLQEALRLSREAFHLALRGDPERARELLEEAEELAREAGDPRLVEMIENLLKTQSSSSS
B10: il10ra_site1_normal_mot_HHH_b2_07579_000000275_0001_1_19_H_._HHH_b1_06901_0001_0000200015_0000001_0 (protein)
chain: SSSSSSDESQEIIELIREAAHIEDPEEAEKVLEEAKELAEEAGNEVALFAVEHLLRDLSSSSSSS
B11: il10ra_site1_normal_mot_HHH_b2_00622_af2_000000153_0001_40_57_H_._HHH_b1_04307_0001_0000200018_0000001_0_af2pred_0001 (protein)
chain: SSSSSDEELLRRLIKAAKRLLELGNPERARLTLRDAAVTARFLGDEELLEEIERLLEEIKSSSSS
B12: il10ra_site1_sap_16_mot_HHH_b1_06789_af2_000000041_0001_1_20_H_._HHH_b2_01747_af2_0001_0001300030_0000002_0_0001_af2pred_dldesign_0_af2pred (protein)
chain: SSSSDKNKAAADYWTEALKTAYAQGNKEAIASSLHGARTLAELINDPELKKVVDEVAAKISSSSS
B13: il10ra_site1_sap_15_mot_HHH_b1_07393_000000133_0001_21_37_H_._HHH_b2_04136_af2_0001_0000700027_0000002_0_0001 (protein)
chain: SSSSSSTEVYELVKRAAEAFADGNPEEAEELLEEAERLAREEGNFAVLFAIEHLLEAFSSSSSSS
B14: il10ra_site1_normal_mot_HHH_b1_06994_000000193_0001_40_55_H_._HHH_b1_01074_0001_0000200030_0000001_0_af2pred_0001 (protein)
chain: SSSSSEEEKRLRIQLRQVELALKLGDEELARFLLRALKRFAEEANDEEIKEEIERLEEEVNSSSS
B15: il10ra_site1_sap_29_mot_HHH_b2_05323_000000159_0001_1_18_H_._HHH_b2_02661_af2_0001_0000100001_0000001_0_0001_af2pred_dldesign_0_af2pred (protein)
chain: SSSSNIKELEKRADELLVKLYQRGDLDAVKEVATLRIKAKLEGDEELLKEAIDYAEKVLEESSSS
B16: il10ra_site1_sap_25_mot_HHH_b1_05357_000000034_0001_23_39_H_._HHH_b1_07730_0001_0000200011_0000002_0_0001_af2pred_0001 (protein)
chain: SSSSSEEEEELEEFVEELVKEFGLSEEEKRSLELHAKFALEQGIDAEVIKLALERLARMLESSSS
B17: il10ra_site1_sap_13_mot_2fa031a62b9321f410fa37cb4b35ac9e_0001_af2_000000160_0001_1_14_H_._HHH_b2_00990_af2_0001_0000500030_0000001_0_0001 (protein)
chain: SSSSDTLEVSVRFMLEAAEKLYEAGDEEHARFVLEELLRFAEHANDEEAERLIQELLEELSSSSS
B18: il10ra_site1_sap_26_mot_HHH_b2_02463_af2_000000222_0001_1_19_H_._HHH_b2_02199_af2_0001_0000400047_0000002_0_0001 (protein)
chain: SSSSSEEYKEVKEAIREAIELYKNGDPEEAQELLEELLEKLEELGNRNLVYNVEWLLRVLSSSSS

Consider 18 molecules from paper PMC10163288.

This is one part of the list.

For the experiment, the target named is il10ra, Q13651. Put plainly: yeast display titration.
With B1, the “apparent Kd” value is “inactive: no binding seen”.

On to B2, for which the “apparent Kd” value is “inactive: no binding seen”.

On to B3, for which the “apparent Kd” value was “inactive: no binding seen”.

Turning to B4, the “apparent Kd” value is “inactive: no binding seen”.

On to B5, for which the “apparent Kd” value is “inactive: no binding seen”.

As to B6, the “apparent Kd” value was “inactive: no binding seen”.

Regarding B7, the “apparent Kd” value is “inactive: no binding seen”.

As for B8, the “apparent Kd” value was “inactive: no binding seen”.

For the molecule B9, the “apparent Kd” value is “inactive: no binding seen”.

Take B10: the “apparent Kd” value is “inactive: no binding seen”.

Consider B11, for which the “apparent Kd” value is “inactive: no binding seen”.

B12: the “apparent Kd” value is “inactive: no binding seen”.

In the case of B13, the “apparent Kd” value was “inactive: no binding seen”.

On to B14, for which the “apparent Kd” value is “inactive: no binding seen”.

Consider B15, for which the “apparent Kd” value is “inactive: no binding seen”.

Turning to B16, the “apparent Kd” value is “inactive: no binding seen”.

Take B17: the “apparent Kd” value was “inactive: no binding seen”.

Regarding B18, the “apparent Kd” value is “inactive: no binding seen”.
